No constants are given. Whether binding was seen depends on the method and setting. Binding seen in cells or lysates may run through a third protein. These calls come from enrichment with a bait or labelling near it, and not all partners need be listed. For part of these data: A no says only that the protein was not detected with the bait. For part of these data: Sequences can lack the tags named with a protein.
B1: Sac3 (protein, UniProt P46674 1-1301)
chain: MNTSFGSVVPSTNFNFFKGHGNNDNTSANSTVNNSNFFLNSNETKPSKNVFMVHSTSQKKSQQPLQNLSHSPSYTENKPDKKKKYMINDAKTIQLVGPLISSPDNLGFQKRSHKARELPRFLINQEPQLEKRAFVQDPWDKANQEKMISLEESIDDLNELYETLKKMRNTERSIMEEKGLVDKADSAKDLYDAIVFQGTCLDMCPTFERSRRNVEYTVYSYEKNQPNDKKASRTKALKVFARPAAAAAPPLPSDVRPPHILVKTLDYIVDNLLTTLPESEGFLWDRMRSIRQDFTYQNYSGPEAVDCNERIVRIHLLILHIMVKSNVEFSLQQELEQLHKSLITLSEIYDDVRSSGGTCPNEAEFRAYALLSKIRDPQYDENIQRLPKHIFQDKLVQMALCFRRVISNSAYTERGFVKTENCLNFYARFFQLMQSPSLPLLMGFFLQMHLTDIRFYALRALSHTLNKKHKPIPFIYLENMLLFNNRQEIIEFCNYYSIEIINGDAADLKTLQHYSHKLSETQPLKKTYLTCLERRLQKTTYKGLINGGEDNLASSVYVKDPKKDRIPSIADQSFLMENFQNNYNEKLNQNSSVKPQINTSPKRVATRPNHFPFSQESKQLPQISQSHTLSTNPLLTPQVHGDLSEQKQQQIKTVTDGGSPFVFDQSAQNSTVEASKAHMISTTSNGAYDEKLSSEQEEMRKKEEQRIEEEKTQLKKKQENADKQVITEQIANDLVKEVVNSSVISIVKREFSEANYRKDFIDTMTRELYDAFLHERLYLIYMDSRAELKRNSTLKKKFFEKWQASYSQAKKNRILEEKKREEIKLVSHQLGVPGFKKSTCLFRTPYKGNVNSSFMLSSSDKNLIFSPVNDEFNKFATHLTKISKLWRPLEMQSIYYDNLTKKFPSNSLTPANLFIYAKDWTSLSNRWILSKFNLQTAQDSKKFSNNIISSRIICIDDEYEPSDFSDLQLLIFNTGVTNPDIFDLEMKLKDDGEELIKLITGISLNTNICFSLLIIYWESAENTLSESTIKHLLKLNRISKNYSSVIERIDLMNLTEESPHKCLEDKLSEISHSYVYKLTERGKYDKTLRQKRSLAGIHSRSTQLQTTKDIDQKMKKMLEKEKNKYQQQIGERNTYAHLESHIDASPRSKKRKLPILLSTSHSSQFKTPLASRLNTSGSSTSPPLPSHLAMKFRKNSRVTSLHTVLPVSTPSHSNNIPAASFSGNNTTDIQSQQLIENQKSTSVYLNNVSERILGNQEICQTPINPVTPVLDGADQGKEDIPDSILELKILIDSVKKKVNND
B2: Sus1 (protein, UniProt Q6WNK7 1-96)
chain: MTMDTAQLKSQIQQYLVESGNYELISNELKARLLQEGWVDKVKDLTKSEMNINESTNFTQILSTVEPKALEMVSDSTRETVLKQIREFLEEIVDTQ
B3: Thp1 (protein, UniProt Q08231 1-455)
chain: MDMANQLLDELAHGNFSHLTLNLSQNGREIAILQKQLTGFDDKQLETFVEQHPAMPNDTRFKIMCTSFLNYARDVDPWSAWSSSDLIFEFYQCLINCLINDNAPHIEMLIPVATRETEFIINLAGKLDSFHLQLHTRSHQFLSHISSILSRLFNSIKPPRGNASSTNIPGKQRILLYLVNKLNNIYFRIESPQLCSNIFKNFQPKSMLAHFNEYQLDQQIEYRYLLGRYYLLNSQVHNAFVQFNEAFQSLLNLPLTNQAITRNGTRILNYMIPTGLILGKMVKWGPLRPFLSQETIDNWSVLYKHVRYGNIQGVSLWLRQNERHLCARQLLIVLLEKLPMVTYRNLIKTVIKSWTTEWGQNKLPYSLIERVLQLSIGPTFEDPGAQEITIYNGIHSPKNVENVLVTLINLGLLRANCFPQLQLCVVKKTTMIQEIVPPVNERITKMFPAHSHVLW
B4: Cdc31 (protein, UniProt P06704 1-161)
chain: MSKNRSSLQSGPLNSELLEEQKQEIYEAFSLFDMNNDGFLDYHELKVAMKALGFELPKREILDLIDEYDSEGRHLMKYDDFYIVMGEKILKRDPLDEIKRAFQLFDDDHTGKISIKNLRRVAKELGETLTDEELRAMIEEFDLDGDGEINENEFIAICTDS
B5: Cdc31, P06704 1-161 (protein)
chain: B4 chain
B6: poly(A)-binding protein Nab2 (protein, UniProt P32505 1-525)
chain: MSQEQYTENLKVIVAEKLAGIPNFNEDIKYVAEYIVLLIVNGGTVESVVDELASLFDSVSRDTLANVVQTAFFALEALQQGESAENIVSKIRMMNAQSLGQSDIAQQQQQQQQQQQPDIAQQQPQQQPQQQPQQQPQQQPQQQPQQQPQQQPQQQPQLQPLQPQLGTQNAMQTDAPATPSPISAFSGVVNAAAPPQFAPVDNSQRFTQRGGGAVGKNRRGGRGGNRGGRNNNSTRFNPLAKALGMAGESNMNFTPTKKEGRCRLFPHCPLGRSCPHAHPTKVCNEYPNCPKPPGTCEFLHPNEDEELMKEMERTREEFQKRKADLLAAKRKPVQTGIVLCKFGALCSNPSCPFGHPTPANEDAKVIDLMWCDKNLTCDNPECRKAHSSLSKIKEVKPISQKKAAPPPVEKSLEQCKFGTHCTNKRCKYRHARSHIMCREGANCTRIDCLFGHPINEDCRFGVNCKNIYCLFRHPPGRVLPEKKGAAPNSNVPTNERPFALPENAIIENAPPQTSFTHQEQDTEMN
B7: poly(A)-binding protein Gbp2 (protein, UniProt P25555 1-427)
chain: MERELGMYGNDRSRSRSPVRRRLSDDRDRYDDYNDSSSNNGNGSRRQRRDRGSRFNDRYDQSYGGSRYHDDRNWPPRRGGRGRGGSRSFRGGRGGGRGRTLGPIVERDLERQFDATKRNFENSIFVRNLTFDCTPEDLKELFGTVGEVVEADIITSKGHHRGMGTVEFTKNESVQDAISKFDGALFMDRKLMVRQDNPPPEAAKEFSKKATREEIDNGFEVFIINLPYSMNWQSLKDMFKECGHVLRADVELDFNGFSRGFGSVIYPTEDEMIRAIDTFNGMEVEGRVLEVREGRFNKRKNNDRYNQRREDLEDTRGTEPGLAQDAAVHIDETAAKFTEGVNPGGDRNCFIYCSNLPFSTARSDLFDLFGPIGKINNAELKPQENGQPTGVAVVEYENLVDADFCIQKLNNYNYGGCSLQISYARRD
B8: pre-mRNA surveillance factor Pml39 (protein, UniProt Q03760 1-334)
chain: MEKDALEVRLKSIRHSLDKNTKLLPGKYRNTLGERLITKWRYKKKSHNGSSMLPEKCKSHVQLYDDLVQESSKHFVGFRLHDLRALLKRICSIQNYTRHVLIEWDVRWVNPLTLASKGWEPYQSASQSQVPFKCCCCHAIMTIPLLKNGDDVADYTMKLNEKIWNSNIIGNHLQKCPWRENQVDLNKEYYLSSQNLIREIERIHTEIDRIVSGSNEFSLKRNSSRIFHYLSEKEIQKLAFFFDCKDYSLVGLLLLGYTKFQKDDLVQCTACFHRASLKKLEYTEFNGHALWCRYYNKELLPTMLLELIGKEDKLITKLGVGERLNKLEAVLQTL

Protein sequences, listed by entry. Tags and fused reporters are not part of them.
UniProt Q02455: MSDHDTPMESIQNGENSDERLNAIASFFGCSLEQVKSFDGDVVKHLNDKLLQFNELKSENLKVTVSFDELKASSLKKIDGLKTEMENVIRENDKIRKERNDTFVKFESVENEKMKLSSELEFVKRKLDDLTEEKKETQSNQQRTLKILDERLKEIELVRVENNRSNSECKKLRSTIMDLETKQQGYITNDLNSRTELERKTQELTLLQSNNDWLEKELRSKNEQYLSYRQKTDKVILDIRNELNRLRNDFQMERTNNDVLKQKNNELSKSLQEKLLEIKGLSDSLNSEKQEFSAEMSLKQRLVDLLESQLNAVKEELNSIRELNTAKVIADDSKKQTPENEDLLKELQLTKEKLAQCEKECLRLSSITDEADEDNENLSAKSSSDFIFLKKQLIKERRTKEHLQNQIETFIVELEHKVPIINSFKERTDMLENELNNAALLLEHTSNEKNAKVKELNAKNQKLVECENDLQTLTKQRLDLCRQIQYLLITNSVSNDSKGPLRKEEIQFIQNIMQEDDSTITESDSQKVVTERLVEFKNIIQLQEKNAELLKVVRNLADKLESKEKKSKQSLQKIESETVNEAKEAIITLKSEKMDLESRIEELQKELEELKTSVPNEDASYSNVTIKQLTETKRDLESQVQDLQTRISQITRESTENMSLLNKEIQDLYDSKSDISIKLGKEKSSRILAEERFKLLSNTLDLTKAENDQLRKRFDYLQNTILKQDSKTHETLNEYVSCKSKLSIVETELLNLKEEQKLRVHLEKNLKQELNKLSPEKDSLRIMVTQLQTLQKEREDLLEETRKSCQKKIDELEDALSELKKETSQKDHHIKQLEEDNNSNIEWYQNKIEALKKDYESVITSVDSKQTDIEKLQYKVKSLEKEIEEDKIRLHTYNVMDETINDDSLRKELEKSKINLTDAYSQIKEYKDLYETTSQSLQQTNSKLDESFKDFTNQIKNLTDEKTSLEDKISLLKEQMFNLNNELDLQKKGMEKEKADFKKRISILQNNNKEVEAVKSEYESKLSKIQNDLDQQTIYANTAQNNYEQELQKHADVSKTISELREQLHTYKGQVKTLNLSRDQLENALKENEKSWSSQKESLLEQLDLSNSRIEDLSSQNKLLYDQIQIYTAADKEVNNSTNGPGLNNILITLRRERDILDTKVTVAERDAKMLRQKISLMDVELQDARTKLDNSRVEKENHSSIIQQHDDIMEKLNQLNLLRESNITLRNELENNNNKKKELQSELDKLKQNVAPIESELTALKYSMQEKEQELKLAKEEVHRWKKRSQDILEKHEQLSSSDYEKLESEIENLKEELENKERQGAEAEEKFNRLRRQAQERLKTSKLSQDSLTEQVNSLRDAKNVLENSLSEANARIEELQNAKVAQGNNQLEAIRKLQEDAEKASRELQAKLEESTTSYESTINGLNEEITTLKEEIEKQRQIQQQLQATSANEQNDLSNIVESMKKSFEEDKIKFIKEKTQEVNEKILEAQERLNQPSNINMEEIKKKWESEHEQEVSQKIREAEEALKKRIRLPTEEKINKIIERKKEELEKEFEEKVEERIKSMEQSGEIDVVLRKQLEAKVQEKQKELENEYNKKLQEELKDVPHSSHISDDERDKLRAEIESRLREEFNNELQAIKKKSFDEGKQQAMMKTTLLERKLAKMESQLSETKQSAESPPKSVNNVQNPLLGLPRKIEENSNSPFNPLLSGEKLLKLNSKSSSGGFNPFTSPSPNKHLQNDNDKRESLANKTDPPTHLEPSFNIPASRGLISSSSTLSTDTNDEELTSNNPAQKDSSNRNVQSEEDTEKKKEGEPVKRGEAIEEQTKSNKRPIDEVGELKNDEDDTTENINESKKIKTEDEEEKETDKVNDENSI

molecular target: T1, Nup133-GFP (S. cerevisiae) (UniProt P36161); assay: condition: only in the flow-through after removal of Mlp1-PrA complexes; conditions: not given
T1 sequence: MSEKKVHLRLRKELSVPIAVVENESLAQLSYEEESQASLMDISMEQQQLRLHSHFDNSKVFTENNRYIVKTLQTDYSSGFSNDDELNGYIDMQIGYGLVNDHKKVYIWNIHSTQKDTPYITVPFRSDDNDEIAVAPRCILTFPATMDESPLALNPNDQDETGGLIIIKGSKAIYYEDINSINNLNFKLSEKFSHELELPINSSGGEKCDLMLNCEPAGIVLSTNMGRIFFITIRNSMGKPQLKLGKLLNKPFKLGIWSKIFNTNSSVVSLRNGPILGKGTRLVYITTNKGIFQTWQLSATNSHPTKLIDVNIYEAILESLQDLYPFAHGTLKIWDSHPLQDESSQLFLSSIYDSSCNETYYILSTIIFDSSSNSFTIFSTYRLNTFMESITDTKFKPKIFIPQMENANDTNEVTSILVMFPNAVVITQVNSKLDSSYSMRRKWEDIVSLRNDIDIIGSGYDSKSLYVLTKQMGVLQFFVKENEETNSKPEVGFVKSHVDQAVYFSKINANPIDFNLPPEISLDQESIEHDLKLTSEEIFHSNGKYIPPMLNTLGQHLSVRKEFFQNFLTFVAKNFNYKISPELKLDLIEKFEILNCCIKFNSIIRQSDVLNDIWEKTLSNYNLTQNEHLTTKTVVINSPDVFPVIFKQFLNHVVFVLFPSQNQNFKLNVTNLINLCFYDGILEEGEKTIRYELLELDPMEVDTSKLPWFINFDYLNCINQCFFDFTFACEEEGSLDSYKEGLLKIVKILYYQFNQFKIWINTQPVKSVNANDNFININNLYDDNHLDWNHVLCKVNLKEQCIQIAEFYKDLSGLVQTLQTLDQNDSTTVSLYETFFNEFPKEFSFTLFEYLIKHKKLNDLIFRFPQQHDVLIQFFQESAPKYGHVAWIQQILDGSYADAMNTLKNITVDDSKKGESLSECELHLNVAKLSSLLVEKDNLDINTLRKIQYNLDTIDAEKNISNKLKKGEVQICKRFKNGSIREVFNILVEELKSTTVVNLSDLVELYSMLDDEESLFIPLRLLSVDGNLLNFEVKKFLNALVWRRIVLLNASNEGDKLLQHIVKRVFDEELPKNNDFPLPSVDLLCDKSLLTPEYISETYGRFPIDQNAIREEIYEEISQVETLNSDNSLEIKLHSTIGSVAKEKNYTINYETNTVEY

binding, no binding:
B1, B2, B3, B4

molecular target: Mlp1-PrA (S. cerevisiae), Q02455; assay: affinity purification with mass spectrometry; conditions: remark: other sources report otherwise

binding, binds:
B5

molecular target: Mlp1-PrA (S. cerevisiae) (UniProt Q02455); assay: affinity purification with mass spectrometry; conditions: not given

binding, binds:
B6, B7, B1, B2, B3, B8

molecular target: T1, Nup133-GFP (S. cerevisiae); assay: affinity purification with mass spectrometry; conditions: not given

binding, binds weakly:
B1, B2, B3, B4
